Experiment: Dynamic headspace analysis of air-dried hair swatches treated with leave-on hair conditioner
Settings: ± std. dev.; for Dynamic headspace concentration of 2-pentylcyclopentanone, profragrance: leave-on hair conditioner, 35° C.; for Dynamic headspace concentration of the perfumery raw material, reference: free ketone equimolar in leave-on hair conditioner

| SMILES | Dynamic headspace concentration of 2-pentylcyclopentanone, profragrance (60-90 min sample) [ng/L] | Dynamic headspace concentration of 2-pentylcyclopentanone, profragrance (120-150 min sample) [ng/L] | Dynamic headspace concentration of the perfumery raw material, reference (60-90 min sample) [ng/L] | Dynamic headspace concentration of the perfumery raw material, reference (120-150 min sample) [ng/L] |
| --- | --- | --- | --- | --- |
| CCCCCC1CCCC1=COC(C)C(=O)OC (racemic) [Compound 18, (±)-methyl 2-((2-pentylcyclopentylidene)methoxy)propanoate] | 121 ± 12 | 108 ± 11 | – | – |
| CCCCCC1CCCC1=O (stereo not shown) [2-pentylcyclopentanone, reference compound] | – | – | 34 ± 18 | 48.4 ± 23 |

From US12624309B2, “Enol ether properfume” (Firmenich SA, priority 2020, dated 2026)
